Results reported in the supplement of paper PMC8967900.

Key:
Experiment in all cases: selective drug sensitivity score (sDSS, relative to normal bone marrow) (sDSS (score)); higher = more potent and effective on the cell line relative to normal bone marrow cells
Details in all cases: 72 h
[1] = system: 697
[2] = system: MHH-CALL-4
[3] = system: COG-LL-317
[4] = system: REH
[5] = system: COG-LL-394h
[6] = system: SUP-B15
[7] = system: KARPAS-45
[8] = system: CCRF-HSB2
[9] = system: TANOUE
[10] = system: MOLT-14
[11] = system: COG-LL-355h
[12] = system: HPB-ALL
[13] = system: KASUMI-2
[14] = system: PF-382
[15] = system: MHH-CALL-2
[16] = system: SEM cells
[17] = system: P30-OHKUBO
[18] = system: ALL-SIL
[19] = system: HAL-01
[20] = system: P12-ICHIKAWA
[21] = system: KASUMI-9
[22] = system: ALL-PO
[23] = system: MN-60
[24] = system: NALL-1
[25] = system: PEER
[26] = system: MOLT-4
[27] = system: NALM-6
[28] = system: COG-LL-332h
[29] = system: LC4-1
[30] = system: CCRF-CEM
[31] = system: COG-LL-319h
[32] = system: MHH-CALL-3
[33] = system: 380
[34] = system: DND-41
[35] = system: RCH-ACV
[36] = system: JURKAT
[37] = system: NALM-16
[38] = system: RPMI-8402
[39] = system: KASUMI-10
[40] = system: COG-LL-402h
[41] = system: MOLT-16
[42] = system: KOPN-8
[43] = system: TMD5
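Also: ALL cell lines in 384-well plates, five doses spanning 10,000-fold, each plate scaled between vehicle and 100 µmol/L benzalkonium chloride controls, sDSS an adapted area-under-curve metric.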

Question: For `C[C@@H]1C[C@H](N)C[C@H](c2ccncc2NC(=O)c2ccc(F)c(-c3c(F)cccc3F)n2)C1` [PIM-447] (top concentration 10000 nM), which “selective drug sensitivity score” value [1] is on record?
Answer: Its value is 2.42.

Question: And the “selective drug sensitivity score” value [2]?
Answer: Its value is 2.52.

Question: What about the “selective drug sensitivity score” value [3] of the same molecule?
Answer: Its value is -4.58.

Question: What about the “selective drug sensitivity score” value [4] of the same molecule?
Answer: Its value is 5.62.

Question: And the “selective drug sensitivity score” value [5]?
Answer: The value was 1.42.

Question: And the “selective drug sensitivity score” value [6]?
Answer: The value was -1.58.

Question: What about the “selective drug sensitivity score” value [7] of the same molecule?
Answer: The value was -1.78.

Question: What about the “selective drug sensitivity score” value [8] of the same molecule?
Answer: The value was 8.92.

Question: What about the “selective drug sensitivity score” value [9] of the same molecule?
Answer: The value was -6.48.

Question: And the “selective drug sensitivity score” value [10]?
Answer: Its value is -2.28.

Question: What about the “selective drug sensitivity score” value [11] of the same molecule?
Answer: The value was 7.92.

Question: What about the “selective drug sensitivity score” value [12] of the same molecule?
Answer: Its value is -5.78.

Question: What about the “selective drug sensitivity score” value [13] of the same molecule?
Answer: The value was 9.12.

Question: What about the “selective drug sensitivity score” value [14] of the same molecule?
Answer: The value was -4.18.

Question: What about the “selective drug sensitivity score” value [15] of the same molecule?
Answer: Its value is 1.72.

Question: What about the “selective drug sensitivity score” value [16] of the same molecule?
Answer: Its value is -3.68.

Question: What about the “selective drug sensitivity score” value [17] of the same molecule?
Answer: Its value is -1.78.

Question: What about the “selective drug sensitivity score” value [18] of the same molecule?
Answer: The value was 4.12.

Question: What about the “selective drug sensitivity score” value [19] of the same molecule?
Answer: The value was 1.72.

Question: And the “selective drug sensitivity score” value [20]?
Answer: The value was -5.68.

Question: What about the “selective drug sensitivity score” value [21] of the same molecule?
Answer: Its value is -3.68.

Question: And the “selective drug sensitivity score” value [22]?
Answer: The value was 6.42.

Question: What about the “selective drug sensitivity score” value [23] of the same molecule?
Answer: The value was 0.32.

Question: What about the “selective drug sensitivity score” value [24] of the same molecule?
Answer: Its value is -1.78.

Question: And the “selective drug sensitivity score” value [25]?
Answer: The value was -2.38.

Question: And the “selective drug sensitivity score” value [26]?
Answer: The value was -6.18.

Question: What about the “selective drug sensitivity score” value [27] of the same molecule?
Answer: The value was -5.98.

Question: What about the “selective drug sensitivity score” value [28] of the same molecule?
Answer: Its value is -0.08.

Question: What about the “selective drug sensitivity score” value [29] of the same molecule?
Answer: The value was 1.72.

Question: And the “selective drug sensitivity score” value [30]?
Answer: Its value is -5.38.

Question: And the “selective drug sensitivity score” value [31]?
Answer: The value was -0.48.

Question: And the “selective drug sensitivity score” value [32]?
Answer: The value was -0.48.

Question: What about the “selective drug sensitivity score” value [33] of the same molecule?
Answer: Its value is 19.7.

Question: What about the “selective drug sensitivity score” value [34] of the same molecule?
Answer: Its value is 4.62.

Question: And the “selective drug sensitivity score” value [35]?
Answer: Its value is 11.3.

Question: What about the “selective drug sensitivity score” value [36] of the same molecule?
Answer: Its value is -5.88.

Question: What about the “selective drug sensitivity score” value [37] of the same molecule?
Answer: Its value is -5.98.

Question: What about the “selective drug sensitivity score” value [38] of the same molecule?
Answer: Its value is -1.88.

Question: What about the “selective drug sensitivity score” value [39] of the same molecule?
Answer: The value was -3.38.

Question: What about the “selective drug sensitivity score” value [40] of the same molecule?
Answer: Its value is -5.18.

Question: What about the “selective drug sensitivity score” value [41] of the same molecule?
Answer: Its value is -5.78.

Question: And the “selective drug sensitivity score” value [42]?
Answer: Its value is 4.92.

Question: And the “selective drug sensitivity score” value [43]?
Answer: The value was -2.78.
